Test results: paper PMC8081377 (Mutagenesis, 2021)

System: EpiDerm™ EPI-200-MNA skin tissues

COC(=O)C1=C(C)NC(C)=C(C(=O)OC)C1c1ccccc1[N+](=O)[O-] [Nifedipine]
top dose, limited by precipitation on the surface of the skin tissues: 51 µg/cm^2
